The values below are quoted from earlier work in patent US20220054532A1, “VETERINARY COMPOSITIONS AND METHODS OF USE THEREFOR” (priority 2019, published 2022).

The conditions of this data set: cited from earlier work.

Consider `C=C(C)[C@@H]1CCC(C)=C[C@H]1c1c(O)cc(CCCCC)cc1O` [CBD Alone, 2-[(1R,6R)-3-methyl-6-prop-1-en-2-ylcyclohex-2-en-1-yl]-5-pentylbenzene-1,3-diol], for which, under “organic solvents, such as pentane”, the “solubility in organic solvents” value is recorded as “soluble”. Besides, the solubility in water entry (water) is “insoluble”.
